Experimental data from PubChem BioAssay AID1671190 (National Center for Advancing Translational Sciences (NCATS), 2021).
Values joined by “and” are separate entries in the source; they are usually repeats but may differ in a detail not shown here. Identical values can stand only once. About 6,100 (1.1%) of roughly 580,000 compounds were called active. The shares of active, inactive and inconclusive entries below differ from those in the screen. The call rests on the fitted dose curve; in most records, active means well fitted inhibition curve with a large enough effect; inconclusive means small, poorly fitted or top-dose-only effect, or another doubt; inactive means no such curve, though single readings can be large or run the other way. Potencies beside an inconclusive call are fits to weak or partial responses and may not hold up.

By UniProt entry, the sequences of proteins in these tests, tags left out.
UniProt P18054, whole entry, looked up: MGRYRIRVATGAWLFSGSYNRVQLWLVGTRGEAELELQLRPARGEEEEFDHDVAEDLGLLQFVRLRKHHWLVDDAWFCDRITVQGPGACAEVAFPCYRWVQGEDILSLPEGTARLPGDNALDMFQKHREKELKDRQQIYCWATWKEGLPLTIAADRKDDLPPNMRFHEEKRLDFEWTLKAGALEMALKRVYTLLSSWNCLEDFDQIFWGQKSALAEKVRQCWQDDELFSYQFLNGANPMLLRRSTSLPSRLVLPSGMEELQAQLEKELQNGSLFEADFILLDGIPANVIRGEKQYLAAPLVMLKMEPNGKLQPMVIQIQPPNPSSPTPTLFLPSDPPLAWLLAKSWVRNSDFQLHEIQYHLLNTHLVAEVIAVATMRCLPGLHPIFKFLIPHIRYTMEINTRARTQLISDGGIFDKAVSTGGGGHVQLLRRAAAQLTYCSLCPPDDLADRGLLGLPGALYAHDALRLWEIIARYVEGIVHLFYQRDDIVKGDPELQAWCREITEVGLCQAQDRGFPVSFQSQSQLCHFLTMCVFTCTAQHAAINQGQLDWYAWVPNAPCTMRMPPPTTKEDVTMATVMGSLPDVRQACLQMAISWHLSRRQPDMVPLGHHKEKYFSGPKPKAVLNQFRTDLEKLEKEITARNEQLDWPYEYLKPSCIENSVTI

Molecular target: Polyunsaturated fatty acid lipoxygenase ALOX12 (Homo sapiens) (UniProt P18054)
Assay: Primary qHTS assay for inhibitors of human arachidonate 12S-lipoxygenase (ALOX12): Round 2
Conditions: purified 12hLO, xylenol orange hydroperoxide absorbance; activity change, negative = inhibition: at 108 µM (top of the series) unless noted
Summary of the method: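 Purified human 12hLO (150 nM final) in 25 mM Hepes, 0.01% Triton X-100, pH 7.0 was preincubated 15 min at room temperature with compound. Then 40 uM arachidonic acid was added, 30 min. Hydroperoxide was read by Fe-XO absorbance ratio 573/405 nm.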
On the % scale 0 is the no-effect control and ±100 the full control effect; potency means the concentration at half of the fitted maximal effect.

Structure (SMILES) | Potency | activity change, negative = inhibition
O=C(COc1ccccc1)N1CCCC(c2nc(C3CCOCC3)no2)C1 (stereo unspecified) | inconclusive: 2 µM [inhibitor, full curve, poor fit] | –
CCn1cc(C(=O)NCc2ccc(Cl)cc2)c(=O)c2cc(S(=O)(=O)N(C)C3CCCCC3)ccc21 | inconclusive: 126 µM [inhibitor, partial curve, poor fit] | –
CCc1ccc(S(=O)(=O)Nc2ccc(-c3nc4cccnc4s3)cc2)s1 | inconclusive: 25.1 µM [inhibitor, partial curve, poor fit] | –
Cc1ccccc1OCCCN1C(=O)C(=O)c2cccc(C)c21 | inconclusive: 44.7 µM [inhibitor, partial curve, poor fit] | –
O/N=C1\CCSc2ccccc21 | – | inactive: 20.7%
CCOC(=O)NC(=O)/C(C#N)=N/Nc1c(F)cccc1F | inconclusive: 7.94 µM [inhibitor, full curve, poor fit] | –
O=C(COC(=O)c1cc([N+](=O)[O-])ccc1Cl)c1cc2ccccc2o1 | active: 39.8 µM | –
CC1CCC(NC(=O)COC(=O)c2cc3ccccc3[nH]2)CC1 (stereo unspecified) | – | inactive: -1.66%
COc1cccc2c1C(=O)C=C(C)C2=O | inconclusive: 70.8 µM [inhibitor, partial curve, poor fit] | –
Cc1sc(NC(=O)/C=C/c2ccco2)c(C(=O)OC(C)C)c1C | inconclusive: 89.1 µM [inhibitor, partial curve, poor fit] | –
Cn1c(=O)c2nc(SCC(=O)NCc3ccccc3Cl)n(C)c2n(C)c1=O | inconclusive: 20 µM [inhibitor, partial curve] | –
COc1ccccc1-n1c(=O)n(Cc2cccc(Cl)c2)c(=O)c2cccnc21 | inconclusive: 3.16 µM [inhibitor, full curve, poor fit] | –
CC1CC(C)CN(c2ccc(C(=O)NCc3ccc4c(c3)OCO4)cc2[N+](=O)[O-])C1 (stereo unspecified) | – | inactive: 7.7%
CCC1(C2CCN(C(=O)c3coc4c3C(=O)CCC4)CC2)NC(=O)N(CCc2scnc2C)C1=O (stereo unspecified) | inconclusive: 100 µM [inhibitor, single point] | –
COC(=O)C1=C(C(=O)c2ccccc2)C(c2ccccc2)n2nnnc2N1 (stereo unspecified) | inactive and inconclusive: 12.6 µM [inhibitor, full curve, poor fit] | –
Cc1ccc(S(=O)(=O)N2C=CC(=O)CC2c2cccs2)cc1 (stereo unspecified) | inconclusive: 44.7 µM [inhibitor, partial curve, poor fit] | –
Cc1ccc(/C=C2\SC(=S)N(c3c(C)n(C)n(-c4ccccc4)c3=O)C2=O)cc1 | inconclusive: 14.1 µM [inhibitor, full curve] | –
Cc1ccc(S(=O)(=O)N(C)C)cc1NC(=O)CSc1nc2ccccc2c(=O)n1CC1CCCO1 (stereo unspecified) | inconclusive: 112 µM [inhibitor, single point] | –
O=C(Nc1c(NCc2ccccc2)c2ccccc2oc1=O)c1ccc(Br)o1 | – | inactive: -68.7%
N#Cc1c(-c2ccccc2)nc(SCc2ccc(Cl)cc2)[nH]c1=O | inconclusive: 44.7 µM [inhibitor, partial curve, poor fit] | –
CC1=C[C@@H](CNC(=O)COCC(=O)O)[C@H](C(C)C)C[C@H]1Cc1nc2ccc(F)cc2[nH]1 | inconclusive: 28.2 µM [inhibitor, single point] | –

Structure (SMILES) | Potency | activity change, negative = inhibition
CC(C)COc1ccc(Br)cc1C(N)=O | – | inactive: -14.4%
COc1ccc(S(=O)(=O)Nc2ccc3c(c2)C(=O)N([C@H](C)CO)C[C@H](C)[C@@H](CN(C)C(=O)Nc2ccc(F)cc2)OCCCC[C@H](C)O3)cc1 | – | inactive: -12.4%
O=C(Cc1c(Cl)cccc1Cl)N1CCN(S(=O)(=O)c2cccs2)CC1 | – | inactive: -22.4%
CC(=O)OCC(=O)[C@@]1(O)CC[C@H]2[C@@H]3CCC4=CC(=O)C=C[C@]4(C)[C@H]3C(=O)C[C@@]21C | – | inactive: 0%
CCCc1cc(=O)n2c(C(=O)Nc3ccc(C)c(C)c3)c(C(=O)Nc3ccccc3)sc2n1 | – | inactive: -13.6%
Cc1ccc(C)c(SCC(=O)Nc2nnc(-c3ccccc3)o2)c1 | inconclusive: 44.7 µM [inhibitor, single point] | –
Cc1nn(C(=O)CNS(=O)(=O)c2ccccc2)c(C)c1Sc1ccc(Cl)cc1 | inconclusive: 12.6 µM [inhibitor, partial curve, poor fit] | –
O=C(NCCCl)NNc1c(Cl)cc(Cl)cc1Cl | inconclusive: 56.2 µM [inhibitor, partial curve, poor fit] | –
O=c1[nH]c2ccc(NCc3ccc(-c4ccc(Br)cc4)o3)cc2[nH]1 | active: 10 µM | –
COC(=O)COc1ccc2c(c1)O/C(=C\C1=Cc3ccccc3OC1C)C2=O (stereo unspecified) | inconclusive: 35.5 µM [inhibitor, partial curve, poor fit] | –
CS(=O)(=O)N1CCCC(C(=O)Nc2ccccc2SC2CCCC2)C1 (stereo unspecified) | inconclusive: 3.16 µM [inhibitor, full curve, poor fit] | –
CCOC(=O)c1sc(NC(=O)C(CC)Sc2nc3ccccc3[nH]2)nc1C (stereo unspecified) | – | inactive: 413%
CCNC(=S)N/N=C/c1ccc(F)cc1 | inconclusive: 44.7 µM [inhibitor, partial curve] | –
O=C(Nc1nc(-c2ccccn2)cs1)c1ccc([N+](=O)[O-])o1 | inconclusive: 70.8 µM [inhibitor, partial curve, poor fit] | –
Cc1nc(-c2ccc3ccccc3c2)cs1 | inconclusive: 44.7 µM [inhibitor, partial curve, poor fit] | –
Cn1c(CCn2ccccc2=O)nc2cc(NC(=O)c3ccccc3)ccc21 | – | inactive: 15.9%
O=S(=O)(c1ccc(NC(=S)NCc2cccnc2)cc1)N1CCCCC1 | inconclusive: 89.1 µM [inhibitor, single point] | –
O=C(Nc1ccccc1Cl)N1CCN(Cc2ccc3c(c2)OCO3)CC1 | – | inactive: -12%
O=C(Nc1ccccc1F)C1CCN(C(=O)Cc2ccccc2)CC1 | inconclusive: 100 µM [inhibitor, partial curve, poor fit] | –
CN1OC[C@@H]2CN(C(=O)Nc3ccccc3)[C@H](c3ccc(N4CCCCC4)cc3)C[C@@H]21 | inconclusive: 112 µM [inhibitor, single point] | –
